This is one part of the list.
Assays:
Assay in all cases: log2 fold change, soluble protein after heating vs DMSO (PISA); higher = thermal stabilisation; K562 lysate, 10 uM; active = over 0.2 and 3.5 SD of the protein, either way, in both replicates (recomputed)
vemurafenib = compound: CCCS(=O)(=O)Nc1ccc(F)c(C(=O)c2c[nH]c3ncc(-c4ccc(Cl)cc4)cc23)c1F [vemurafenib]
Method in brief: (§1)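 K562 pellets were dounce-homogenised in PBS pH 7.4 with 1 mM MgCl2, and the crude extract at 1 mg/mL protein was treated with 10 μM compound for 30 min. Aliquots were heated for 3 min across 48°C-58°C, pooled, and brought to 0.5% NP-40 at 4°C; soluble protein was the supernatant after 21,000xg for 90 min. Soluble protein was quantified by TMTpro 16plex LC-MS/MS with channel sums equalised, and reported as log2 fold change in thermal stability against DMSO controls, with values from duplicates.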

Chains of the proteins cited; added tags and fusions are not shown. Lines headed by an entry give the natural chain unless they say otherwise; changes in a name come on top.
UniProt Q15637: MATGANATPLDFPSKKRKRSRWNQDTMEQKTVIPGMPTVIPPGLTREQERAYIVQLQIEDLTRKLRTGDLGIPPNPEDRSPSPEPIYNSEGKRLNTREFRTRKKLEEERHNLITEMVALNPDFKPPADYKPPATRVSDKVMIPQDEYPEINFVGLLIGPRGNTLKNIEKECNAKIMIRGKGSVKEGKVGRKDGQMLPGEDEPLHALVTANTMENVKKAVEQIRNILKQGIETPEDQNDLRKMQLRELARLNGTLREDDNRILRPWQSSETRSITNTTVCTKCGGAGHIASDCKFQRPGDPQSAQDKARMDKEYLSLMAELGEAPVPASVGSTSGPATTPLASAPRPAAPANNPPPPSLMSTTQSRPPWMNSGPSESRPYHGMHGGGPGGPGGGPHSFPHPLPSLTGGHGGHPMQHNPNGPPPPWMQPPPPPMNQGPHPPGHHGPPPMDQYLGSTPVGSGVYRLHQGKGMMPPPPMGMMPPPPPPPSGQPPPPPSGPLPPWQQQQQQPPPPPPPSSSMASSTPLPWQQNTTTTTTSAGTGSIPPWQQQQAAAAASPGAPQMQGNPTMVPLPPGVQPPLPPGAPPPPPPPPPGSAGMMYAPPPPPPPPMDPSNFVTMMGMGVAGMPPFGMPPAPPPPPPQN
UniProt Q86XK3: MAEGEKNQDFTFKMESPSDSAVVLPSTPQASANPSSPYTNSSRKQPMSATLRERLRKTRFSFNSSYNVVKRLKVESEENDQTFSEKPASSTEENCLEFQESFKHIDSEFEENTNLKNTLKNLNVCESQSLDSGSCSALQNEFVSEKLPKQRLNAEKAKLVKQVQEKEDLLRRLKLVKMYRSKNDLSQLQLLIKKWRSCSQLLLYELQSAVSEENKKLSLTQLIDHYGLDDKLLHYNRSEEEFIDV
UniProt Q9BWJ5: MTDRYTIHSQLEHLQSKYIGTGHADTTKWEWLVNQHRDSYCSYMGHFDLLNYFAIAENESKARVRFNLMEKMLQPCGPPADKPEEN
UniProt Q8TD22: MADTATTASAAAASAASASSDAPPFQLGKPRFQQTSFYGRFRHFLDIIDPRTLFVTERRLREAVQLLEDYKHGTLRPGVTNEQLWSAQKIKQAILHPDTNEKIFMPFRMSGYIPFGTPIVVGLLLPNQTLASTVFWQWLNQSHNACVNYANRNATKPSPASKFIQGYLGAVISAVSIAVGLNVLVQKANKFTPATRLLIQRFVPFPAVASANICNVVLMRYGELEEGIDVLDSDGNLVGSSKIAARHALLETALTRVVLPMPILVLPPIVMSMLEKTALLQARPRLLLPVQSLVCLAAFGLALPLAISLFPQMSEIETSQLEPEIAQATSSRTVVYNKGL
UniProt P12757: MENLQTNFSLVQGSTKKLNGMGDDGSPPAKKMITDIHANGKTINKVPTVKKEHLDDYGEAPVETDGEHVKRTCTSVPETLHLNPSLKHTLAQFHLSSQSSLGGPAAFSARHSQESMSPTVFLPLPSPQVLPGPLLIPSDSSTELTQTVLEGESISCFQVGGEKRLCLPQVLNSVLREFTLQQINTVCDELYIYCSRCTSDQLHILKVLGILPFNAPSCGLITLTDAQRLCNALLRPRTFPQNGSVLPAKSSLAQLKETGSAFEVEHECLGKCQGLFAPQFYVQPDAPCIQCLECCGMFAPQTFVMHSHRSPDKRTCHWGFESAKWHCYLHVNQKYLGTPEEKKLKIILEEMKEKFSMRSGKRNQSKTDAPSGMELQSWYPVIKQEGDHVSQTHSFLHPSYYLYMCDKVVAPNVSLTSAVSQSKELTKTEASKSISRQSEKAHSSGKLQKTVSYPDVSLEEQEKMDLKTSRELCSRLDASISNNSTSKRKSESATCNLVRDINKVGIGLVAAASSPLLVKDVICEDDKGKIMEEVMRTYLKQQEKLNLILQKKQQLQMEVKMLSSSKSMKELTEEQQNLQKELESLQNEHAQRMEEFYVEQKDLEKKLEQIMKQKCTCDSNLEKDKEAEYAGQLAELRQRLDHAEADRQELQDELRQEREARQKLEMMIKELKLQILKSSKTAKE
UniProt Q6NT16: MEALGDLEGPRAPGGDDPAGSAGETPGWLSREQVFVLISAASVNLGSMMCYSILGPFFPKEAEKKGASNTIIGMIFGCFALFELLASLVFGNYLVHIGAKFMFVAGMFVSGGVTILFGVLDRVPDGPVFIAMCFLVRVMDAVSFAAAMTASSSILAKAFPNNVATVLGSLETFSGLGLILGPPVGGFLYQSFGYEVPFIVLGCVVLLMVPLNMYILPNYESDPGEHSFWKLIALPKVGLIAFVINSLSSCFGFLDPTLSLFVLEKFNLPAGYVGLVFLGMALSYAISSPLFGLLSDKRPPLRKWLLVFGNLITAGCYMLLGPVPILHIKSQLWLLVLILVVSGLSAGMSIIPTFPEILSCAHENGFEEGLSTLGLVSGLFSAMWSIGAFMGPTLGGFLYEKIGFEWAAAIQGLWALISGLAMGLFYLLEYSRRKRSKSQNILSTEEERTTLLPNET
UniProt Q9Y6P5: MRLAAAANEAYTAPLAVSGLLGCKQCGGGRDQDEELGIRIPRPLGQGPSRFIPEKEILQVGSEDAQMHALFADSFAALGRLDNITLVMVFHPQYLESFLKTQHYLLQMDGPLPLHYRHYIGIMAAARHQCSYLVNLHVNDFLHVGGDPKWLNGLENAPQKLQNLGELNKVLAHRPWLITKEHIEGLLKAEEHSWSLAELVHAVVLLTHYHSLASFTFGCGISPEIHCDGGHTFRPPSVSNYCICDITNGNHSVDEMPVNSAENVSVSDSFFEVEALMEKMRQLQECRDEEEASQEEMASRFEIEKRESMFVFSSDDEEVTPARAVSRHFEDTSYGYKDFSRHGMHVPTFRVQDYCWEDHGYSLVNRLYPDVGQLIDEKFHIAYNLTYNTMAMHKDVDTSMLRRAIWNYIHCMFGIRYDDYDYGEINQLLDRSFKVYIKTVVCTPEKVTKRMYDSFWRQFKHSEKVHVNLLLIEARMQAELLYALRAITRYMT
UniProt P05543: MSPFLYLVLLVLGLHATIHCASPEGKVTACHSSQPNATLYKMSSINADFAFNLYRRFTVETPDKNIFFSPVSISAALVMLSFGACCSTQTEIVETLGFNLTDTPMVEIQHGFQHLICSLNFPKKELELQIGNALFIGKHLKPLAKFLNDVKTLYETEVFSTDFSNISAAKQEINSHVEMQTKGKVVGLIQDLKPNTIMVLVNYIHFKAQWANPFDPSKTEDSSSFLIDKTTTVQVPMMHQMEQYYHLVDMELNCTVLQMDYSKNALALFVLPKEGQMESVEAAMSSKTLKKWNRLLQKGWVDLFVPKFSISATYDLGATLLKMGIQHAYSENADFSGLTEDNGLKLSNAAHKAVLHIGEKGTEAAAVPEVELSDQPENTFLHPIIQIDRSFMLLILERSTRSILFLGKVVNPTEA
UniProt P78314: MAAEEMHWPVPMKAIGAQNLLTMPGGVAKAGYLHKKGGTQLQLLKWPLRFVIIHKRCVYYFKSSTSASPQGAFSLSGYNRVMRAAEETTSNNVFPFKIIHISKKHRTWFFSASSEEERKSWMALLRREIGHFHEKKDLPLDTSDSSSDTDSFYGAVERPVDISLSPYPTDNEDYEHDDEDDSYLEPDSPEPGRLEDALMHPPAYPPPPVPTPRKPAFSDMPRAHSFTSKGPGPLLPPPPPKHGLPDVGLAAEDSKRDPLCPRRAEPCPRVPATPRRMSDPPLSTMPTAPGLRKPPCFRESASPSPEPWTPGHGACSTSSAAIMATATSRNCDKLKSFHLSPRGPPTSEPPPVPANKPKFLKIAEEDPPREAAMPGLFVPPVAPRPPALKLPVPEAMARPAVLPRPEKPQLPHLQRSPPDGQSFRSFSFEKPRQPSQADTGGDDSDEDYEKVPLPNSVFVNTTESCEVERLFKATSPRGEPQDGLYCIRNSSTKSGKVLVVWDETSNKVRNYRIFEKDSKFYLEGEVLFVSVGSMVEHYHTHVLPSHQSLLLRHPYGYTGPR
UniProt Q7Z333: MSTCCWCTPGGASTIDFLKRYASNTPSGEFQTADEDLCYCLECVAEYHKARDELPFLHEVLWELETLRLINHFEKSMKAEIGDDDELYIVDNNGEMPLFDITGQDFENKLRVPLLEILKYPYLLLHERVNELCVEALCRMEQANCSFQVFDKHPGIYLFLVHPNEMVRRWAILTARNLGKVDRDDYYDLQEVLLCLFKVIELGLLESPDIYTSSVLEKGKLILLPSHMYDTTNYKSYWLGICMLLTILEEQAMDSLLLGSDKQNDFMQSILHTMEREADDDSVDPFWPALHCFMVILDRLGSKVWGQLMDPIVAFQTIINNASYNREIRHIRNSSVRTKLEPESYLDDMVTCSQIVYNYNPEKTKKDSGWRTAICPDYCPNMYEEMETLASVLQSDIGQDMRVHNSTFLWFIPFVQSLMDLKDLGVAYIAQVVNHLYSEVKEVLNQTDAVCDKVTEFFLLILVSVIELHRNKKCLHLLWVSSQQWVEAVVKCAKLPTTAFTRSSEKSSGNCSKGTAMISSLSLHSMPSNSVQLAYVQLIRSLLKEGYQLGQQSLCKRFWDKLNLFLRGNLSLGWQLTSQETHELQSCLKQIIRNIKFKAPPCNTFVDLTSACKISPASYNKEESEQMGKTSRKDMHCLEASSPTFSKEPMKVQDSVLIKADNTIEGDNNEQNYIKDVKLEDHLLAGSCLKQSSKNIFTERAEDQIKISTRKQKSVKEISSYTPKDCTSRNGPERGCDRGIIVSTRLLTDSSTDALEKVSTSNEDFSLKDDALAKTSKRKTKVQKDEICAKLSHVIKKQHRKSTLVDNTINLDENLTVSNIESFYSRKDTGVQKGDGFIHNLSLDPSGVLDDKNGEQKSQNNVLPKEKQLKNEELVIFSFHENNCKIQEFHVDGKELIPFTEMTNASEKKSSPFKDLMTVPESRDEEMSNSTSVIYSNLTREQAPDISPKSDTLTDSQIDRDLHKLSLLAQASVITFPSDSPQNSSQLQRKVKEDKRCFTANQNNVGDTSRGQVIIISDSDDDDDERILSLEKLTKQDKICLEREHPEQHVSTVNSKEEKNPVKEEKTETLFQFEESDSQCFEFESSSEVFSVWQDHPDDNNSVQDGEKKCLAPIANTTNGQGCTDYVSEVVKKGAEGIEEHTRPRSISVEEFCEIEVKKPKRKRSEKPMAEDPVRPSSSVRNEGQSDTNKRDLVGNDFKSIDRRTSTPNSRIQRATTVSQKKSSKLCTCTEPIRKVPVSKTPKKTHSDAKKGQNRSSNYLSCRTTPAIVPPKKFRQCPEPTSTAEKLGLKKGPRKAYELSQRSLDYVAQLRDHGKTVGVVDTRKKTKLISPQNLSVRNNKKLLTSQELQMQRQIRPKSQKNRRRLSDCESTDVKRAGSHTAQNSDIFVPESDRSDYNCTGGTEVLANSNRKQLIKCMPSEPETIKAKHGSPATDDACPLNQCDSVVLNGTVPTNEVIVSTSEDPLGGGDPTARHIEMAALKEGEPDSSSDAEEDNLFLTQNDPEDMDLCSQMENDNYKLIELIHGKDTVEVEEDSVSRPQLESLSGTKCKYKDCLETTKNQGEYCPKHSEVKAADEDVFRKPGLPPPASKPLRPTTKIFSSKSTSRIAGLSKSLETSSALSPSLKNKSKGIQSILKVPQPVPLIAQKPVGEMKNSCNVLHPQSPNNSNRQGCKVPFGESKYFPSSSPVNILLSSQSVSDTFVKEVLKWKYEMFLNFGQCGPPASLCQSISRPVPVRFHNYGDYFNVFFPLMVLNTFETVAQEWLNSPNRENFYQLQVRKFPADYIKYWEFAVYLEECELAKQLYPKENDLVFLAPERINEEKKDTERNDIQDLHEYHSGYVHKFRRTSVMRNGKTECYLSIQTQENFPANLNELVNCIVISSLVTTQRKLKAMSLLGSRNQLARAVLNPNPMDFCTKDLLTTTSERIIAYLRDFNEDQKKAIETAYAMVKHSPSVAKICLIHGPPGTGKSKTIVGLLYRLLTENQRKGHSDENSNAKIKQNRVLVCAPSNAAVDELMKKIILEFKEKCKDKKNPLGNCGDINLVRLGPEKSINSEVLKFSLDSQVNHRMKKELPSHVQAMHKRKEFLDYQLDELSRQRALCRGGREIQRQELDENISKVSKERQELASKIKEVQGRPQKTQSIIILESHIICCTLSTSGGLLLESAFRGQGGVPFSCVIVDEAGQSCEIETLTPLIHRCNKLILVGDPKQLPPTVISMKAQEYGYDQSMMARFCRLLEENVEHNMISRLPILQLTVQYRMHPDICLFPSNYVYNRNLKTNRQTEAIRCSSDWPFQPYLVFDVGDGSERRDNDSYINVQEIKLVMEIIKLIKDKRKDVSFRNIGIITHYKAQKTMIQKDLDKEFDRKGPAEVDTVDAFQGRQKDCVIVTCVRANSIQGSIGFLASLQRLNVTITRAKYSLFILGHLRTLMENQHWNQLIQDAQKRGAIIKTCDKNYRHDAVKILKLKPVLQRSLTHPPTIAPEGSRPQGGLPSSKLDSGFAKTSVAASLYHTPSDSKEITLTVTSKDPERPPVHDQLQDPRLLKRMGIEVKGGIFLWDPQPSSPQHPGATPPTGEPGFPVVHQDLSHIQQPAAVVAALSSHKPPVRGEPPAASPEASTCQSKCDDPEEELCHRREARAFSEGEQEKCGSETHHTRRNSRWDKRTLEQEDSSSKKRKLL

[1] = compound: CCCS(=O)(=O)Nc1ccc(F)c(C(=O)c2c[nH]c3ncc(Cl)cc23)c1F
Method in brief: as §1

barasertib = compound: CCN(CCCOc1ccc2c(Nc3cc(CC(=O)Nc4cccc(F)c4)[nH]n3)ncnc2c1)CCOP(=O)(O)O [barasertib]
Method in brief: as §1

[2] = compound: CC[C@@H]1C(=O)N(C)c2cnc(Nc3ccc(C(=O)NC4CCN(C)CC4)cc3OC)nc2N1C1CCCC1
Method in brief: as §1

volasertib = compound: CC[C@@H]1C(=O)N(C)c2cnc(Nc3ccc(C(=O)N[C@H]4CC[C@H](N5CCN(CC6CC6)CC5)CC4)cc3OC)nc2N1C(C)C [volasertib]
Method in brief: as §1

[3] = compound: CCn1c(C(=O)N(C2CC2)C2CC2)cc2c3c(ncn3C)c(Nc3cc(C)n(C)n3)nc21
Method in brief: as §1

[4] = compound: CCn1cc(-c2ccnc3[nH]c(-c4cccc(CN(C)C)c4)cc23)c(-c2ccc(NC(=O)N(C)C)cc2)n1
Method in brief: as §1

[5] = compound: CN1CCC(CNc2ccc3ncc(-c4cccc(OC(F)(F)F)c4)n3n2)CC1
Method in brief: as §1

saracatinib = compound: CN1CCN(CCOc2cc(OC3CCOCC3)c3c(Nc4c(Cl)ccc5c4OCO5)ncnc3c2)CC1 [saracatinib]
Method in brief: as §1

sotrastaurin = compound: CN1CCN(c2nc(C3=C(c4c[nH]c5ccccc45)C(=O)NC3=O)c3ccccc3n2)CC1 [sotrastaurin]
Method in brief: as §1

alvocidib = compound: CN1CC[C@H](c2c(O)cc(O)c3c(=O)cc(-c4ccccc4Cl)oc23)[C@H](O)C1 [alvocidib]
Method in brief: as §1

Tubastatin A = compound: CN1CCc2c(c3ccccc3n2Cc2ccc(C(=O)NO)cc2)C1 [Tubastatin A]
Method in brief: as §1

[6] = compound: CNC(=O)C1=CC=CC=C1NC2=NC(=NC=C2Cl)NC3=C(C=C(C=C3)N4CCOCC4)OC
Method in brief: as §1

defactinib = compound: CNC(=O)c1ccc(Nc2ncc(C(F)(F)F)c(NCc3nccnc3N(C)S(C)(=O)=O)n2)cc1 [defactinib]
Method in brief: as §1

[7] = compound: CNc1nc(-c2ccc3c(N)n[nH]c3c2)cc(N2C[C@@H](C(=O)NC3CCCCC3)CC[C@H]2C)n1
Method in brief: as §1

encorafenib = compound: COC(=O)N[C@@H](C)CNc1nccc(-c2cn(C(C)C)nc2-c2cc(Cl)cc(NS(C)(=O)=O)c2F)n1 [encorafenib]
Method in brief: as §1

[8] = compound: COC(=O)[C@H](CCSC)NC(=O)C1=C(C=C(C=C1)NC[C@H](CS)N)C2=CC=CC=C2
Method in brief: as §1

alisertib = compound: COc1cc(Nc2ncc3c(n2)-c2ccc(Cl)cc2C(c2c(F)cccc2OC)=NC3)ccc1C(=O)O [alisertib]
Method in brief: as §1

[9] = compound: COc1cc2nc(-c3cc(F)ccc3O)nc(N[C@@H]3CNC[C@H]3C(C)(C)O)c2cc1OC
Method in brief: as §1

gefitinib = compound: COc1cc2ncnc(Nc3ccc(F)c(Cl)c3)c2cc1OCCCN1CCOCC1 [gefitinib]
Method in brief: as §1

Measured: log2 fold change

SF3B3 (UniProt Q15393)
inactive: vemurafenib 0.004 | [1] 0.002 | barasertib 0.001 | [2] -0.004 | volasertib 0.006 | [3] 0.001 | [4] -0.058 | [5] 0.05 | saracatinib 0.002 | sotrastaurin -0.014 | alvocidib -0.024 | Tubastatin A 0.019 | [6] 0.004 | defactinib -0.036 | [7] 0.013 | encorafenib -0.003 | [8] 0.064 | alisertib -0.01 | [9] 0.038 | gefitinib -0.007

SF1 isoform 6 (UniProt Q15637)
inactive: vemurafenib -0.027 | [1] 0.001 | barasertib 0.046 | [2] 0.256 | volasertib -0.001 | [3] -0.043 | [4] -0.005 | [5] 0.034 | saracatinib 0.156 | alvocidib 0.009 | Tubastatin A 0.09 | [6] 0.053 | defactinib 0.033 | [7] 0.367 | encorafenib 0.082 | [8] 0.066 | alisertib -0.01 | [9] -0.046 | gefitinib 0.045

SFR1 isoform 2 (UniProt Q86XK3)
inactive: vemurafenib -0.031 | [1] -0.037 | barasertib 0.024 | [2] 0.028 | volasertib 0.022 | [3] 0.013 | [4] -0.087 | [5] -0.119 | saracatinib -0.04 | sotrastaurin 0.085 | alvocidib -0.014 | Tubastatin A -0.003 | [6] -0.009 | defactinib -0.155 | [7] -0.005 | encorafenib 0.014 | [8] -0.007 | alisertib 0.004 | [9] -0.007 | gefitinib -0.03

SF3B5 (UniProt Q9BWJ5)
inactive: vemurafenib 0.022 | [1] 0.04 | barasertib 0.075 | [2] -0.089 | volasertib -0.004 | [3] -0.039 | [4] 0 | [5] -0.033 | saracatinib 0.086 | sotrastaurin 0.004 | alvocidib 0.161 | Tubastatin A -0.015 | [6] 0.02 | defactinib 0.082 | [7] 0.024 | encorafenib 0.039 | [8] 0.12 | alisertib -0.129 | [9] -0.022 | gefitinib -0.024

SFXN5 (UniProt Q8TD22)
inactive: vemurafenib -0.007 | [1] -0.04 | [2] 0.016 | volasertib 0.165 | [3] 0.165 | saracatinib 0.061 | sotrastaurin 0.056 | Tubastatin A 0.009 | [6] 0.003 | defactinib 0.067 | [7] 0.06 | encorafenib 0.022 | [8] 0.055 | alisertib 0.001 | [9] -0.011 | gefitinib -0.062

SLC10A3 (UniProt P09131)
inactive: vemurafenib 0.121 | [2] -0.099 | [4] -0.012 | [5] 0.025 | alvocidib 0.019 | defactinib 0.114 | encorafenib -0.014 | [8] 0.052

SF1 (UniProt H7C0N4)
inactive: vemurafenib -0.02 | [1] 0.026 | [2] 0.12 | volasertib 0.004 | [4] 0.074 | [5] 0.168 | sotrastaurin 0.218 | alvocidib -0.071 | defactinib 0.023 | encorafenib -0.001 | [8] 0.02 | [9] 0.263

SIRT3 (UniProt Q9NTG7)
inactive: vemurafenib -0.158 | [1] 0.018 | volasertib 0.101 | [3] -0.074 | saracatinib -0.162 | sotrastaurin -0.006 | Tubastatin A 0.077 | [6] 0.017 | defactinib 0.054 | [7] 0.282 | [9] -0.017

SERBP1 isoform 3 (UniProt Q8NC51)
inactive: [1] -0.089 | barasertib -0.058 | [2] 0.121 | volasertib 0.132 | [3] 0.074 | saracatinib -0.033 | sotrastaurin 0.047 | Tubastatin A 0.117 | [6] -0.078 | [7] -0.03 | encorafenib 0.091 | [8] -0.047 | [9] -0.007

SH2B1 (UniProt Q9NRF2)
inactive: [1] -0.118 | barasertib -0.007 | volasertib 0.062 | [3] -0.119 | [4] -0.144 | [5] 0.1 | saracatinib 0.049 | sotrastaurin 0.054 | alvocidib 0.049 | Tubastatin A -0.108 | [6] -0.121 | [7] 0.086 | alisertib -0.049 | [9] 0.048 | gefitinib 0.034

SIMC1 (UniProt Q8NDZ2)
inactive: vemurafenib 0.044 | barasertib 0.363 | [2] -0.034 | [4] 0.129 | [5] 0.088 | sotrastaurin -0.011 | alvocidib -0.154 | defactinib 0.04 | encorafenib -0.214 | [8] 0.217 | alisertib -0.066 | gefitinib 0.054

SKP2 (UniProt Q13309)
inactive: vemurafenib 0.417 | [1] 0.093 | [2] 0.193 | volasertib 0.05 | [3] 0.025 | [4] 0.121 | [5] -0.008 | saracatinib -0.011 | sotrastaurin 0.032 | alvocidib -0.048 | Tubastatin A -0.077 | [6] 0.044 | defactinib 0.189 | [7] 0.03 | encorafenib -0.053 | [8] 0.085 | alisertib 0.01 | [9] 0.173 | gefitinib 0.058

SKIL (UniProt P12757)
inactive: vemurafenib -0.035 | [2] -0.148 | [3] -0.086 | [4] 0.127 | [5] -0.001 | alvocidib 0.129 | Tubastatin A 0.195 | [6] 0.129 | defactinib -0.153 | encorafenib -0.085 | [8] 0.093

SGMS1 (UniProt Q86VZ5)
inactive: vemurafenib 0.035 | [1] 0.037 | [2] -0.104 | volasertib 0.007 | [3] 0.011 | [4] -0.021 | [5] -0.006 | saracatinib 0.03 | sotrastaurin 0.033 | alvocidib -0.058 | Tubastatin A 0.035 | [6] 0.048 | defactinib -0.056 | [7] -0.057 | encorafenib 0.036 | [8] -0.005 | alisertib 0.001 | [9] 0.172 | gefitinib -0.014

SFXN4 isoform 3 (UniProt Q6P4A7)
inactive: vemurafenib 0.278 | barasertib -0.361 | [2] -0.035 | [3] -0.001 | [4] -0.238 | [5] -0.009 | sotrastaurin -0.03 | alvocidib -0.202 | Tubastatin A 0.084 | [6] -0.047 | defactinib -0.057 | encorafenib 0.076 | [8] -0.173 | alisertib 0.477 | gefitinib 0.217

SETD1B (UniProt Q9UPS6)
inactive: vemurafenib 0.04 | barasertib -0.045 | [4] -0.275 | [5] 0.026 | saracatinib 0 | sotrastaurin 0.062 | alvocidib -0.093 | defactinib -0.009 | [7] 0.132

SLC18B1 (UniProt Q6NT16)
inactive: vemurafenib -0.113 | [1] -0.131 | volasertib 0.057 | [3] -0.07 | [4] -0.108 | [5] 0.017 | sotrastaurin -0.009 | alvocidib -0.084 | Tubastatin A 0.107 | [6] 0.036 | defactinib 0.003 | alisertib 0.015 | [9] 0.026 | gefitinib 0.062

SESN1 isoform 2 (UniProt Q9Y6P5)
inactive: [1] -0.001 | barasertib 0.101 | [2] 0.248 | volasertib 0.135 | [4] -0.008 | [5] -0.008 | sotrastaurin -0.148 | alvocidib -0.019 | [6] 0.046 | encorafenib -0.081 | [8] 0.133 | [9] -0.07

SH2D1B (UniProt O14796)
inactive: vemurafenib -0.007 | [2] 0.031 | [3] -0.125 | [4] -0.062 | [5] -0.069 | saracatinib -0.05 | sotrastaurin 0.047 | alvocidib 0.017 | Tubastatin A -0.299 | defactinib 0.097 | [7] -0.065 | encorafenib 0.12 | [8] -0.098

SERPINA7 (UniProt P05543)
inactive: vemurafenib -0.125 | barasertib 0.341 | [2] -0.042 | [4] -0.078 | [5] 0.01 | alvocidib -0.053 | defactinib 0.013 | encorafenib -0.015 | [8] 0.056

SH3BP2 isoform 4 (UniProt P78314)
inactive: vemurafenib 0.087 | [1] -0.017 | barasertib -0.075 | volasertib -0.052 | [3] 0.029 | [4] -0.04 | [5] 0.089 | saracatinib 0.006 | sotrastaurin 0.02 | alvocidib -0.023 | Tubastatin A 0.026 | [6] 0.03 | defactinib -0.054 | [7] 0.099 | [9] 0.053

2 consecutive entries already listed, for reference:
SERPINA7 (UniProt P05543)
inactive: vemurafenib -0.125 | barasertib 0.341 | [2] -0.042 | [4] -0.078 | [5] 0.01 | alvocidib -0.053 | defactinib 0.013 | encorafenib -0.015 | [8] 0.056

SH3BP2 isoform 4 (UniProt P78314)
inactive: vemurafenib 0.087 | [1] -0.017 | barasertib -0.075 | volasertib -0.052 | [3] 0.029 | [4] -0.04 | [5] 0.089 | saracatinib 0.006 | sotrastaurin 0.02 | alvocidib -0.023 | Tubastatin A 0.026 | [6] 0.03 | defactinib -0.054 | [7] 0.099 | [9] 0.053

The results go on.

SETX isoform 4 (UniProt Q7Z333)
inactive: vemurafenib -0.026 | [1] -0.037 | [2] 0.013 | volasertib -0.009 | [3] -0.017 | [4] 0.094 | [5] -0.176 | saracatinib 0.041 | sotrastaurin 0.073 | alvocidib 0.108 | Tubastatin A -0.173 | [6] 0.058 | defactinib 0.218 | [7] 0.022 | encorafenib -0.219 | [8] 0.17 | alisertib 0.003 | [9] 0.11 | gefitinib 0.025
